Values from PubChem BioAssay AID1259254 (NCATS, 2017)

- Aim: 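Finding genes that stop cells copying their DNA twice in one cycle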 (primary screen)
- System: human HCT116 colorectal cancer cells
- Knock-down reagent: single siRNA against human genes
- Duration: 3 days
- Measured: 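Imaged Hoechst DNA stain sorts each cell into a cycle phase by DNA amount; per plate, G2 fraction set to 0% for non-targeting and 100% for GMNN siRNA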
- Reading the numbers: G2 robust z-score: higher = more G2 cells, more excess DNA replication
- Call rule: 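An siRNA counts as active if its G2 robust z-score lies at least 5 MADs above the screen median; here such calls match roughly 38% of GMNN control or more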
Shown is a random part of about 59,000 deposited reagents. About 1,550 of all reagents (2.6%) count as active. 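G2 share is only a proxy for re-replication; each gene was hit by three separate siRNAs, and active genes were retested.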 Reagents against one gene are numbered here. Not all columns of the deposit are shown. Not given: the amount of reagent.

What is on record for AGAP2 #1?
G2 robust z-score: -0.6; activity call: inactive

What did the screen give for AGAP2 #2?
G2 robust z-score: -0.803; activity call: inactive

For AGAP2 #3, what does the deposit list?
G2 robust z-score: 0.996; activity call: inactive

For CUL4A #1, what does the deposit list?
G2 robust z-score: 0.175; activity call: inactive

With CUL4A #2, what was measured?
G2 robust z-score: -0.295; activity call: inactive

With CUL4A #3, how do the results read?
G2 robust z-score: -0.182; activity call: inactive

Which result is listed for KRTAP5-5 #1?
G2 robust z-score: 4.14; activity call: inactive

What did the screen give for KRTAP5-5 #2?
G2 robust z-score: -1.69; activity call: inactive

With KRTAP5-5 #3, what does the deposit list?
G2 robust z-score: 0.175; activity call: inactive

Which result is listed for SLC35F5 #1?
G2 robust z-score: -0.641; activity call: inactive

With SLC35F5 #2, how do the results read?
G2 robust z-score: -0.666; activity call: inactive

What is on record for SLC35F5 #3?
G2 robust z-score: -1.17; activity call: inactive

Individual results from the list:
Result for AGAP2 #3 in “activity call”: inactive
CUL4A #1, activity call = inactive
